These results are taken from the supplement of paper PMC5949888.

Most values lie at the floor of the assay. Slopes are relative: functional sequences can read slightly below zero.

In this data set the test system is Saccharomyces cerevisiae PS128 hsf1 delta, HSF1(1-493) fusion. The data set can be described thus: growth estimate (transactivation domain function in HSF1 fusion, heat-shock survival) (a.u. (slope of normalised read count over time)); higher = stronger growth at 37°C, i.e. more transactivation activity. Particulars: library: random library. The protocol:
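Random 60-nt DNA library encoding peptides of up to 20 aa, fused to the C-terminus of yeast HSF1 residues 1-493 (C-terminal TAD deleted) and expressed from the native HSF1 promoter on a CEN plasmid in hsf1-deleted S. cerevisiae PS128. Cells were selected at 37°C on -trp 5-FOA plates for 0, 2, 4, 6 and 8 days and amplicons were sequenced. Growth estimate is the slope of a robust linear fit of total-sum-normalised read counts (normalised to the first time point) over time, using at least 2 replicates. Sequences are classed functional (TAD activity) above a threshold of -0.13, set from stop-codon control sequences.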
As to WEVVDLQAISSWLMVFSTYV, the growth estimate is less than -0.25.
As for DRSAVS, the figure is less than -0.25; as for AEIQLAAGRLQNHRLATRMG, less than -0.25; as for HSMRHVPELTLTIGVTCMQI, less than -0.25.
For EYIRSAPAFR the value was less than -0.25; for VKTWVPGLSREVLAELQRLR, less than -0.25.
As for TVKS, the figure is less than -0.25; as for YLGILVESIHLT, less than -0.25.
With RCCNG, the growth estimate is less than -0.25.
As for YVVPLGVFTFIQIAI, the growth estimate is -0.243.
As for EISSAWTRLRD, the figure is less than -0.25; as for CWRPPRLSEPVMQKFAAWDS, less than -0.25.
Take RASRASGEETPKLRYRVHLP: the growth estimate was less than -0.25.
As for KFIHAHRIAC, the figure is less than -0.25.
For GTLVSARFRAYTNASAVRRI the value was less than -0.25.
For ETCENPL the value was less than -0.25.
Turning to ANGRSYQGLFQVALLF, the growth estimate is less than -0.25.
As for YTATADRATP, the figure is -0.228.
For IHLLVESAAERIRERAVF the value was less than -0.25.
On to CCFTSCQGPSAGDRQHPWCG, for which the growth estimate was less than -0.25.
For YIGLSEAFTLVNNPATELL the value was less than -0.25.
For LKPPCITGGGNLCRIDIALA, the growth estimate was less than -0.25.
Turning to ASAKLVSLHNTSTVT, the growth estimate was less than -0.25.
For GGHCFQDTMWLR the value was less than -0.25; for CLCAGSGNFTRI, less than -0.25.
Take CGVATRV: the growth estimate is less than -0.25.
For WPQIARGANSLYVGLLAEGS the value was less than -0.25.
For MWKDTSLGVVHYLEGIGSNG the value was less than -0.25.
For AIMARRSR the value was -0.228; for DSKGGHRPWVFVVFYCVHAG, less than -0.25; for LKSG, less than -0.25.
Take IQEWVACYLFLTLSDNTVES: the growth estimate was less than -0.25.
For VGWGAYGHAGENVIEWVKGR the value was less than -0.25.
For GDRTVLEWWTASSPVITGSA the value was less than -0.25.
For LNKY the value was less than -0.25.
As for CRAPGIRGWLPEDRPQEAAG, the growth estimate was less than -0.25.
For RIGF the value was less than -0.25; for MRVAHHA, less than -0.25; for YYGIIARSVTPVNQNAHTGQ, less than -0.25.
For MRWCP the value was less than -0.25; for SVFSG, less than -0.25.
For WPYGDNTLIARQLWGSPIDF the value was less than -0.25; for RTLDEGTLRRRPFLS, less than -0.25.
As for PLKPISLRTRKGMSLYFRTS, the growth estimate is less than -0.25.
For LPEVRFRESCVQPNV the value was less than -0.25; for FLASLYNPFVAVYHPNGNPG, less than -0.25.
For VFRDLFYRFVYIQG the value was less than -0.25.
For IRLGFSMVTLGSPRGVSPQA the value was less than -0.25; for ADLGLD, less than -0.25; for SLVRPSKATEFKLSCITFSV, less than -0.25.
Regarding IEVTE, the growth estimate is less than -0.25.
In the case of GLQQGLMPYKKKR, the growth estimate was less than -0.25.
As for YSGNDHRARRVSPIN, the growth estimate is less than -0.25.
With RDHYFMRFLSSLPIRLKGRS, the growth estimate is less than -0.25.
As for CQSGGAVIDRIVYLRRELNV, the figure is less than -0.25; as for RDKNSV, less than -0.25.
As for AIED, the figure is less than -0.25; as for IDYFLTLGSSSLTSW, less than -0.25.
As for YVASKVLGC, the figure is less than -0.25; as for GSAFPQLLW, less than -0.25.
LRRLEGTVLPTRNFSRHL: the growth estimate was less than -0.25.
As for TQSDAIRVHAVQTSADSPLH, the figure is less than -0.25; as for HRL, less than -0.25.
As for CSRLQLGARR, the figure is less than -0.25; as for RFILE, less than -0.25.
As for SPSNGPHLILLSESPVEHAR, the figure is less than -0.25; as for KWMLRSIATVIKATSTRLPL, less than -0.25; as for ATRFEPVPLPRKPIIRPLSV, less than -0.25.
As for TSLGPSLATGV, the growth estimate is less than -0.25.
For ELYRANGQSR the value was less than -0.25; for GDQLCHSGTQG, less than -0.25; for AMGIRSHWTMGNTVMDLLTL, less than -0.25.
Take VLRQYASQEGPAFTSSPNST: the growth estimate is less than -0.25.
As for RSSVCDVEKRYNRCFDQSTT, the figure is less than -0.25; as for RVHLLYFGGCIHGGWAVHPP, less than -0.25; as for GDHEHLVNAEEVEIYPMSLV, less than -0.25.
As for EVSIRCKMTARLSG, the figure is less than -0.25; as for VRVDSLCALVNKPKRYGDTT, less than -0.25; as for MGYRHRRLQGSKTQSILLSF, less than -0.25.
As for TSAGVLRIVRPKVSFYKGNE, the figure is less than -0.25.
Regarding RLNPGEFH, the growth estimate was less than -0.25.
For the substance PNPICLGLCDGVIRAWLVET, the growth estimate was less than -0.25.
For ITGALKGICHQDRDRL the value was less than -0.25; for TAGLGLSDSEVVRLR, less than -0.25.
On to GSNNQNAEEYSLGSRR, for which the growth estimate is less than -0.25.
For HRPARNRGPLPRYLT the value was less than -0.25; for VLGRPEY, less than -0.25; for REVLTRPPLLILVVCTHSGD, less than -0.25.
For DGRHRS the value was less than -0.25; for RPLHAGPP, less than -0.25; for EVVHVTYAVSAGGGT, less than -0.25.
As for NLVSTHDDASAEHERLVQRP, the figure is less than -0.25; as for VLYFSAM, less than -0.25.
On to KVELK, for which the growth estimate was less than -0.25.
In the case of YLDQAIVVPCLMDTR, the growth estimate is less than -0.25.
As for PVRS, the figure is less than -0.25.
For YSAPAERTWVRRQMSR, the growth estimate is less than -0.25.
As for AVTGTLLLYLSE, the figure is less than -0.25; as for THLII, less than -0.25; as for HYNSLRTKDFTIL, less than -0.25.
As for RKLLCSSRGRGA, the figure is less than -0.25; as for NITI, less than -0.25.
For VSFVSGLCGRVGTVC the value was less than -0.25.
Turning to KPRILLYRDHQLPIRVYMPV, the growth estimate is less than -0.25.
With LRNCRHSMGKLLPVVVPLDQ, the growth estimate is -0.245.
As for MPGDPVRNV, the figure is less than -0.25; as for VTESLPPRGGSKGRAGPCFR, less than -0.25.
For DDADRYHHIPDNRDSPCSSL, the growth estimate is less than -0.25.
On to GSDGVRFRWAGWPGCCLGDV, for which the growth estimate was less than -0.25.
For QGLR the value was less than -0.25; for SLGKEVPPMIERDVRFVGNS, less than -0.25.
For CGALSGI the value was less than -0.25; for GGKEGLLHISVGLLKDMSVR, less than -0.25.
For ENEGMVGSNTTSFWRLTGRP the value was less than -0.25; for GSDSFIAPGGSPNEHYIA, -0.231; for RVIQSRGMPVEKYEHWFKSQ, less than -0.25.
